Data from publication PMC6016461.
Results are given in words; binding and its absence hold for the method and conditions named. Binding seen in cells or lysates may run through a third protein. Sequences can lack the tags named with a protein. One block for each binder: values may come before it.

Tests used:
Test in all cases: pull-down; purified Strep-tagged NafY, NifY or NifW immobilised on Strep-Tactin XT resin; A. vinelandii cell-free extract (MoFe protein without Strep-tag) passed over; anoxic buffer C (50 mM Tris-HCl pH 7.9, 2 mM Na2S2O4, 350 mM NaCl), 10 column volumes wash; eluted with 50 mM biotin; SDS-PAGE; some samples further run on Superose 12 to remove excess bait; only the target purified
[1] = molecular target: T1, Strep-tagged NafY (A. vinelandii) (UniProt Q9F5X9)
T1 sequence: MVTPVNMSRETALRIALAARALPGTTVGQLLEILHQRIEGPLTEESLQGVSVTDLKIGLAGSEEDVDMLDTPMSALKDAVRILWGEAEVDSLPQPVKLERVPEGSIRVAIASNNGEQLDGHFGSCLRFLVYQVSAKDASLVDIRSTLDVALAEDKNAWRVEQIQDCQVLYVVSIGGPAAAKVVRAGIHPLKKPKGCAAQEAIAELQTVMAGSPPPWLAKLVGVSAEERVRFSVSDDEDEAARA

[2] = molecular target: T2, Strep-tagged NifY (A. vinelandii) (UniProt P14886)
T2 sequence: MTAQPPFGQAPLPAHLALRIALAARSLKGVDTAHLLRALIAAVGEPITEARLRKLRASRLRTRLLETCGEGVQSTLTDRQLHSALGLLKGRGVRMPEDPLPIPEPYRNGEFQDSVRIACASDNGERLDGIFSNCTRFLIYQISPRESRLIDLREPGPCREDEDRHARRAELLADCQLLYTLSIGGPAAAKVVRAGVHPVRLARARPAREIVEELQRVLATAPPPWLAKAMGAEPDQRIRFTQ

[3] = molecular target: T3, Strep-tagged NifW (A. vinelandii) (UniProt P14888)
T3 sequence: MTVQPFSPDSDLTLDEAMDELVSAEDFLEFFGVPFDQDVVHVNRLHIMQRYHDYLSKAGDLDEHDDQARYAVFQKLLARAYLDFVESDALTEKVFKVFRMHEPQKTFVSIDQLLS

- binding [1]: no binding
B1: NifY (protein, UniProt P14886 1-242)
chain: MTAQPPFGQAPLPAHLALRIALAARSLKGVDTAHLLRALIAAVGEPITEARLRKLRASRLRTRLLETCGEGVQSTLTDRQLHSALGLLKGRGVRMPEDPLPIPEPYRNGEFQDSVRIACASDNGERLDGIFSNCTRFLIYQISPRESRLIDLREPGPCREDEDRHARRAELLADCQLLYTLSIGGPAAAKVVRAGVHPVRLARARPAREIVEELQRVLATAPPPWLAKAMGAEPDQRIRFTQ

- binding [2]: no binding
B2: NafY (protein, UniProt Q9F5X9 1-243)
chain: MVTPVNMSRETALRIALAARALPGTTVGQLLEILHQRIEGPLTEESLQGVSVTDLKIGLAGSEEDVDMLDTPMSALKDAVRILWGEAEVDSLPQPVKLERVPEGSIRVAIASNNGEQLDGHFGSCLRFLVYQVSAKDASLVDIRSTLDVALAEDKNAWRVEQIQDCQVLYVVSIGGPAAAKVVRAGIHPLKKPKGCAAQEAIAELQTVMAGSPPPWLAKLVGVSAEERVRFSVSDDEDEAARA

- binding [3]: no binding
B3: NifZ (protein, UniProt P14889 1-159)
chain: MLPQFEYGDEVRLIRNVRNDGTYPGMNTGALLMRRGAVGCVYDVGTYLQDQLIYRVHFLDEGRTIGCREEELILASAPWIPNLFEFRDDVIATRSLAVRGQVLVKRGQLGSIMKVLRDEPELGIQYHVHFGDGLVLQVPEQSLAMADSTAAIEEVLDGI
